This sample is rich in variants without activity.

167 variants from the RNAGym collection of RNA variant scans (doi:10.1126/science.aae0568) can be followed below.

B1: tRNA (parent)
chain: GUUCCGUUGGCGUAAUGGUAACGCGUCUCCCUCCUAAGGAGAAGACUGCGGGUUCGAGUCCCGUACGGAACG

The variants in this series derive from B1. The series is described as follows: yeast fitness relative to wild type (ratio to wild type); higher = fitter; tRNA-Arg(CCU), competitive growth, 37 C, YPD. In short, it runs like this:
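Variants of the tRNA-Arg(CCU) gene were chemically synthesised with a 3% per-site mutation rate across 69 sites and placed at the native genomic locus in Saccharomyces cerevisiae. Six parallel replicates of the pooled strains were competed in YPD at 37°C for 24 hours, and gene amplicons from the start and end populations were read by 100-nucleotide paired-end sequencing. Darwinian fitness relative to wild type was derived from changes in genotype frequencies. Genotypes required ≥ 100 starting reads, and estimates < 0.5 were set to 0.5.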
As for U19C A20C C31G A69C, the yeast fitness is not above 0.5.
Turning to C30G C34U A45C U53G C61G, the yeast fitness is not above 0.5.
Consider C27U C31A A40U, for which the yeast fitness is not above 0.5.
For U2G C5G U47G, the yeast fitness is not above 0.5.
In the case of C27G C66U A69U, the yeast fitness was not above 0.5.
As to U3C C11A U32G C61A C62A, the yeast fitness came out at 0.587.
Next, C5G C34A C66U: not above 0.5; U2A C24G A43U C46U: 0.542.
Take A20U A37G A43G G68A: the yeast fitness is not above 0.5.
With G10C G39A A69U, the yeast fitness was not above 0.5.
Turning to G12A C27U C30G C55U A57C, the yeast fitness is 0.547.
Next, U7A U59C: 0.662.
Consider A20U G23C U35G, for which the yeast fitness was 0.643.
The figure for A14U C30G A40G is not above 0.5.
As to G10C C31A G56A A65G C66A G68C, the yeast fitness was not above 0.5.
Regarding C4G G23C A69U, the yeast fitness was not above 0.5.
In the case of C5A C11G A21G A40U C55U U59A, the yeast fitness was not above 0.5.
The figure for C5A A42C U64C is not above 0.5.
As to U8C A15U U16A U26A U54C, the yeast fitness is not above 0.5.
Next, C4U G12A A42U C49U: not above 0.5; A14U A57C C60G C61A: 0.601.
Next, U26C U35G: 0.615; C11U C22G C29G: not above 0.5.
For the variant U16G A21C G25C A37C A40U, the yeast fitness is not above 0.5.
Turning to U2G A42U U47A, the yeast fitness came to 0.738.
As for U32C A43C U47A, the yeast fitness was not above 0.5.
In the case of G17A C24G U28A C30U, the yeast fitness is not above 0.5.
Turning to G10A A36G G48C, the yeast fitness is 0.691.
A14G A21C C24A G39A G56C A69U: the yeast fitness is not above 0.5.
Turning to A14U G18C G39C C49G C61U, the yeast fitness was not above 0.5.
On to C4A C24G G38C, for which the yeast fitness is not above 0.5.
Next, C4G A14G C24G: not above 0.5.
In the case of C22G C27G C31G C61G A69U, the yeast fitness amounted to 0.62.
Consider C5U U28C C46U G58A, for which the yeast fitness was not above 0.5.
In the case of U35G A57G A65U, the yeast fitness was not above 0.5.
As to C4G A15C C46G G63C C66A, the yeast fitness is not above 0.5.
Take U19C A20C C24A C61U G63C: the yeast fitness was not above 0.5.
Regarding U19C U28C C29G A57U, the yeast fitness is not above 0.5.
In the case of A14C C24U U26A G52C, the yeast fitness was not above 0.5.
Consider C11A A20U U28G G51A C62U, for which the yeast fitness is not above 0.5.
Turning to G25A C31U G38C C49U C62U A69U, the yeast fitness was not above 0.5.
For C22U U28C C29G C33A C62U G63A U64A, the yeast fitness is not above 0.5.
Take A21G G25A C30G C33U U64A: the yeast fitness is not above 0.5.
C33G U53A C60U: the yeast fitness was 0.637.
Turning to G6C U16A C27G U59A, the yeast fitness was not above 0.5.
Consider C31U A57C U59G U64G, for which the yeast fitness is not above 0.5.
The figure for A14C C34G C49U C55U A69C is not above 0.5.
Regarding C30G A45C G48A, the yeast fitness is not above 0.5.
Consider U26C C29A A36C, for which the yeast fitness was not above 0.5.
The figure for C5U A20C G63A is 0.607.
With U59A U64A A70C, the yeast fitness is not above 0.5.
On to C5A C24G C61U, for which the yeast fitness is not above 0.5.
With A14G C55A A69C, the yeast fitness was not above 0.5.
Next, G12A G38C C49U C62U A69U: 0.973; U3G C30G U59G C66A: not above 0.5; U19C C31A G50C A70U: not above 0.5.
Consider U28A C55G A69U, for which the yeast fitness is not above 0.5.
As for U2G G9C A37C A43G, the yeast fitness is not above 0.5.
In the case of C30A C49G A65C, the yeast fitness was not above 0.5.
As to U2G C11U G17C A20C C49A G63A, the yeast fitness is not above 0.5.
Take C4A A20C A42C: the yeast fitness is not above 0.5.
For G6A U13G G44A C46A G52A C66U, the yeast fitness was not above 0.5.
Next, C4U C5G C33U: not above 0.5.
The figure for U7A A20G G23A U26G G58C is not above 0.5; for G10A A20G U26C G39A it is not above 0.5.
Next, C11U C24G C33A A40C: 0.955; G25A C60G C66U A70U: not above 0.5; C5A C31U G44C: not above 0.5.
Turning to C4G C5U C22G U64C, the yeast fitness was not above 0.5.
As for C5G U26G C62U, the yeast fitness was not above 0.5.
Regarding U32G G67C, the yeast fitness amounted to 0.59.
As to C5G G10C U13G A40G U54A, the yeast fitness is not above 0.5.
In the case of A14G U54A, the yeast fitness is not above 0.5.
Regarding A45U G68A, the yeast fitness was 0.926.
The figure for U8A C34G A65U C66A is not above 0.5.
Consider C11U C24G C30A A40C, for which the yeast fitness is not above 0.5.
Next, C24U G48C G50A C61G: not above 0.5; C5U C11A G50C C66U: not above 0.5; A21C C22A C34G A37C C62U: not above 0.5.
With C27U C30G, the yeast fitness amounted to 0.624.
Consider C4U A20G U28C C31U G50C C55U C60G G63A C66U, for which the yeast fitness was found to be 0.508.
The figure for U35G G67U is not above 0.5.
C5G A65U C66G: the yeast fitness is not above 0.5.
Regarding G12A G23A C27G C30G, the yeast fitness is not above 0.5.
On to G23A A40C U54A U59A, for which the yeast fitness is not above 0.5.
Regarding G12U C46U A57C C60G, the yeast fitness is not above 0.5.
Regarding C27G C33G G41C C61A, the yeast fitness was not above 0.5.
A21U G38C A45G U59A: the yeast fitness is not above 0.5.
The figure for C4G G39C A45G A57C A65U C66U is 0.796; for C22G C24U A37C U59A it is not above 0.5; for A21U U35A G56U C61G it is not above 0.5.
For the variant G10U G18C A21G, the yeast fitness is not above 0.5.
The figure for C4A C34G A65C is not above 0.5; for G12C A14U U26A it is not above 0.5.
Next, U8C C22U G56A G68C: not above 0.5; C46G C49A U54C G58C: not above 0.5; C11G G23C A36G A37G: 0.774.
Take C4G C11G A70G: the yeast fitness is not above 0.5.
For the variant G10A A14U U54G, the yeast fitness is not above 0.5.
Regarding U8A C27A A37U A57U, the yeast fitness was not above 0.5.
Next, A14G U19C A21U: 0.503; U8G A21C G56C: 0.766; G6C U8C A42G C46U C55G: not above 0.5.
In the case of C4A U16C U35G A45U G51A, the yeast fitness is not above 0.5.
In the case of C31A G56C, the yeast fitness was not above 0.5.
As for G17A G18A, the yeast fitness is 0.65.
On to A14U C30U C60A C66U, for which the yeast fitness amounted to 0.618.
The figure for U2C G10C G12C C33U U35G is not above 0.5; for G23C U26G C33G A45C it is not above 0.5; for C11U U19C G23A G25A C55U it is 0.537.
Next, C11G A45G C62A: not above 0.5.
For C27G U35C G68U, the yeast fitness was not above 0.5.
For the variant C27U C49U G52A C60A, the yeast fitness is not above 0.5.
The figure for C5G U26A A36C U64C is not above 0.5; for C5G C22A A37G G50C G67C it is not above 0.5.
For the variant U2G C4U C11G G18C U32C C34U A45U A70U, the yeast fitness was not above 0.5.
On to U19G G52C C66U, for which the yeast fitness is not above 0.5.
The figure for U3G C55U G67C is not above 0.5; for G12A C24G U47A C49G A69C it is not above 0.5; for C5U C24A A45G it is not above 0.5.
As for U28A A37C C61G G68U, the yeast fitness is not above 0.5.
The figure for U26G C27G C33U G39C U47C C49U is not above 0.5; for G12C C22G G23A C55A it is not above 0.5.
As to C4A C49U C55A G63A C66U, the yeast fitness was not above 0.5.
Next, A14G G25A G52A: not above 0.5.
For C4G C5U C55U, the yeast fitness stood at 0.544.
For A14U A15U C27A C29G G44C C66A A70U, the yeast fitness is not above 0.5.
The figure for G44C C46G C55U G67C is not above 0.5; for C31G A37C G50A it is not above 0.5; for C27G C29G C34U C62A G63A it is not above 0.5.
With G25C C60A C62G, the yeast fitness is not above 0.5.
For A20C U28G C46A A65U, the yeast fitness is not above 0.5.
With U3C C22A U47A A70G, the yeast fitness is not above 0.5.
U3C U13A C31U G41A A57C A70U: the yeast fitness was not above 0.5.
In the case of C4A G23A C33G, the yeast fitness was determined as 0.655.
The figure for U28C C60A is 0.632; for C27A C60U A65C it is not above 0.5.
The figure for G17A C31G C60U G68A is not above 0.5.
As to G9A G10C G25C C33U C62A C66U, the yeast fitness was not above 0.5.
The figure for U8A U16G C31U C34A A37U G41C G48A C49U is not above 0.5; for U3C C11A U32G it is not above 0.5.
C27U A36U G52C C61A: the yeast fitness is not above 0.5.
With A37U A42C A69C, the yeast fitness is not above 0.5.
The figure for C30A C49U A57G is not above 0.5; for G6C C33G A36C C49A C60G it is not above 0.5.
A21C C31G A69U: the yeast fitness was not above 0.5.
With G17C C29U A57C, the yeast fitness is not above 0.5.
Next, G9A C24U A40U G56A G67C: not above 0.5; C30U G39A G68C: not above 0.5; U2G C4U C22U C30G C55U: not above 0.5.
As for A15C U19C A21G C34U, the yeast fitness is not above 0.5.
Turning to C22G C30A G41C A42U, the yeast fitness is not above 0.5.
C11U A40U G67A: the yeast fitness is not above 0.5.
As for U2A U8A G67A, the yeast fitness is not above 0.5.
Consider C30G C55A, for which the yeast fitness is not above 0.5.
A14U U47A A57G: the yeast fitness was not above 0.5.
Regarding U28A A36G G48C A69U A70U, the yeast fitness was not above 0.5.
Next, C22A C60A C62U: not above 0.5; G6A U8C C24U C29G C49A: not above 0.5; C24G C27G C61U A65G G68C: not above 0.5.
Regarding A14U A37G G44C A45C G50A C55G, the yeast fitness is 0.594.
Next, U2G C33A C49G: not above 0.5.
Take C11A C24G C34U: the yeast fitness was not above 0.5.
For the variant U35C G56A U59C A65C A70G, the yeast fitness is not above 0.5.
In the case of U2G C4G C11A G68A, the yeast fitness is not above 0.5.
Turning to C11A A21G C31G A36U A65U, the yeast fitness was not above 0.5.
The figure for A20C C34A G56C is not above 0.5.
